# Laboratory results: the supplement of paper PMC11150407
# Hit rate of the full screen: of about 3,000 compounds, about 45 (2%) showed an effect of 50% or more. This is one part of the list.
# System: MOLM1 and UCSD/AML1 (averaged)
# Assay: cell viability relative to DMSO control (POC); higher = less growth inhibition
# Settings: 1 µM; 72 h
# Description: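 Primary viability screen in the 3q26 EVI1-high AML cell lines MOLM1 and UCSD/AML1, compounds at 1 uM for 72 h. ATP CellTiter-Glo read-out given as percent viable over DMSO control (POC), averaged over duplicates. This mapping covers the TimTec NDL-3000 natural derivative library, whose compounds are identified by TimTec catalogue codes (ST...).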
row,Structure (SMILES),cell viability
1,O=C(O)c1cc(S(=O)(=O)N2CCc3ccccc3C2)cs1,100%
2,COc1cc2[nH]c(=O)c3c(C)nc(C)c(C(=O)O)c3c2cc1OC,113%
3,Cc1ccc(NC(=O)C(Cc2c[nH]c3ccccc23)NC(=O)OCC(C)C)cc1 (configuration not stated),89%
4,COc1ccc(C(=O)NCCOc2ccc(C)c(C)c2)c(OC)c1OC,95.4%
5,Cc1cccc(C)c1NC(=O)CSc1nc2c(=O)[nH]cnc2n1C,111%
6,CC1(C(=O)O)CCC2(C)CCC3(C)C(=CC(=O)C4C5(C)CCC(OC6OC(C(=O)O)C(O)C(O)C6OC6OC(C(=O)O)C(O)C(O)C6O)CC5CCC43C)C2C1.CC1(C(=O)O)CCC2(C)CCC3(C)C(=CC(=O)C4C5(C)CCC(OC6OC(C(=O)O)C(O)C(O)C6OC6OC(C(=O)O)C(O)C(O)C6O)CC5CCC43C)C2C1.CC1(C(=O)O)CCC2(C)CCC3(C)C(=CC(=O)C4C5(C)CCC(OC6OC(C(=O)O)C(O)C(O)C6OC6OC(C(=O)O)C(O)C(O)C6O)CC5CCC43C)C2C1.[Fe] (configuration not stated),91.5%
7,Cc1ccc(-n2c(SCC(=O)Nc3c(C)cc(C)cc3C)nc3c(=O)[nH]cnc32)cc1,104%
8,CC(=O)On1cc(F)c(=O)n(CC2CO2)c1=O (configuration not stated),85.8%
9,COc1ccc(C2NC(C(=O)O)Cc3c2[nH]c2ccccc32)cc1COC(=O)COc1ccc(Cl)cc1Cl (configuration not stated),85.4%
10,O=C(Cn1c(=O)cc(C(=O)N2CCOCC2)c2ccccc21)Nc1cccc(Cl)c1,91.7%
11,COC(=O)c1ccccc1NC(=O)CSc1nc2c(=O)[nH]cnc2n1-c1ccc(C)cc1,98.2%
12,CCOc1cc(C2NC(=O)NC(C)=C2C(=O)OCC(F)(F)F)ccc1O (configuration not stated),83.8%
13,Cc1ccc2occ(-c3nc(-c4ccccc4)c(-c4ccccc4)[nH]3)c(=O)c2c1,91.7%
14,O=C(Cn1c(=O)cc(C(=O)N2CCc3ccccc3C2)c2ccccc21)Nc1ccccc1F,105%
15,CN(C)c1n[nH]c(=O)[nH]c1=O,88.1%
16,COc1cc(C(=O)NCCOc2ccccc2-c2ccccc2)cc(OC)c1OC,94.6%
17,COc1ccc(CNC(=O)C(=O)Nc2ccccc2C)cc1,92.7%
18,CCOC(=O)N1CCCc2cc(NCCC(=O)c3ccc(OC)c(OC)c3)ccc21,95.3%
19,CCOc1ccccc1C1C2CCCCC2(O)CCN1CC(=O)NCc1ccco1 (configuration not stated),87.9%
20,COC(=O)C1=C(C)NC(SC)=C(C#N)C1c1cc(OC)c(OC)c(OC)c1 (configuration not stated),18.3%
21,COC(=O)C1=CN(Cc2ccc(F)cc2)C=C(C(=O)OC)C1c1cc(OC)c(OC)c(OC)c1,103%
22,CC1(C)CC(C(CC(=O)O)Cc2ccccc2)CCO1 (configuration not stated),92.2%
23,CCCNC(=O)c1cc(=O)n(CC(=O)Nc2ccc(F)cc2F)c2ccccc12,94.6%
24,CCc1cccc(C)c1NC(=O)c1ccc(OC)c(OC)c1,101%
25,Cc1nc(NC(=O)c2ccc3c(c2)OCO3)sc1C,88.6%

row,Structure (SMILES),cell viability
1,COCCOC(=O)c1c(C)n(CCCNc2ccc(Cl)cc2[N+](=O)[O-])c2c1cc(O)c1ccccc12,88.3%
2,COc1ccc(C(=O)CCNc2ccccc2C(=O)NC2CC2)cc1OC,102%
3,Cc1ccc2c(CN3CCN(CC(=O)Nc4cc(Cl)ccc4C)CC3)cc(=O)oc2c1,102%
4,O=C(/C=C/c1ccccc1O)c1cc(O)ccc1O,74.3%
5,COCCOC(=O)c1c(C)n(CCNc2ccc(C(F)(F)F)cc2[N+](=O)[O-])c2c1cc(O)c1ccccc12,108%
6,CCOC(=O)Cn1ncc2ccccc2c1=O,93.1%
7,CCC(C)OC(=O)C1=C(C)NC2=C(C(=O)CC(c3ccc(Cl)cc3)C2)C1c1cc(OC)c(OC)c(OC)c1 (configuration not stated),85.8%
8,COc1ccc(OC)c(NC(=O)Cn2c(=O)cc(C(=O)N3CCCCC3)c3ccccc32)c1,94.7%
9,COc1cc(/C=N\Nc2nc(-c3ccc(Br)cc3)cs2)cc(OC)c1OC,100%
10,COc1ccc(NC(=O)Cc2ccccc2OC)c(OC)c1,88.7%
11,Cc1ccc2c(c1)N(C(=O)CSc1nc3ccccc3c(=O)[nH]1)CCO2,73.8%
12,Cc1ccc(NC(=O)CSc2nc3c(=O)[nH]cnc3n2C)cc1C,94.8%
13,CN1CCN(Cc2c(O)ccc3cc(-c4nc5ccccc5s4)c(=O)oc23)CC1,101%
14,COC(=O)c1cc(OC)c(OC)c(OC)c1NS(=O)(=O)c1cc2c(cc1C)n(C)c(=O)n2C,108%
15,Cc1cc2c(C(C)C)c(O)c(O)c(C=NCCOc3ccc4c(c3)CCC4)c2c(O)c1-c1c(C)cc2c(C(C)C)c(O)c(O)c(C=NCCOc3ccc4c(c3)CCC4)c2c1O,102%
16,CCOC(=O)c1cc2cc(Br)ccc2oc1=O,108%
17,CC1(C)CC(=O)C2=C(C1)Nc1ccccc1N(C(=O)c1ccccc1)C2c1ccc(Cl)cc1Cl (configuration not stated),113%
18,COc1ccc(C(=O)CSc2nnc(-c3ccc(OC)c(OC)c3)o2)cc1OC,96.6%
19,O=C(CCNc1cccc(Cl)c1)c1cc2ccccc2oc1=O,115%
20,CCOC(=O)Nc1ccc2c(c1)N(C(=O)CCN1CCOCC1)c1ccccc1S2,92.3%
21,C=CCOc1cc(=O)oc2cc3occc3cc12,98.9%
22,O=c1cc(O)c2cc(Cl)cc(Cl)c2o1,108%
23,O=C([O-])[C@H](O)[C@H](O)[C@@H](O)[C@H](O)[C@H](O)CO.O=C([O-])[C@H](O)[C@H](O)[C@@H](O)[C@H](O)[C@H](O)CO.[Ca+2],96.3%
24,Cc1cc(C)c2c(CN3CCN(c4ccccn4)CC3)cc(=O)oc2c1,97.6%
25,N#CC1=C(N)Oc2cc(O)ccc2C1c1ccccc1 (configuration not stated),104%

row,Structure (SMILES),cell viability
1,COCCOC(=O)C1=C(C)NC2=C(C(=O)CCC2)C1c1cc(Cl)c(O)c(OC)c1 (configuration not stated),108%
2,N#CC1=C(N)Oc2n[nH]c(-c3ccc(F)cc3)c2C1c1ccc(O)cc1 (configuration not stated),99.7%
3,NC(Cc1ccc([N+](=O)[O-])cc1)C(=O)O (configuration not stated),108%
4,COc1ccc2[nH]c3c(c2c1)CCNC3c1cccc(F)c1 (configuration not stated),80.9%
5,COc1cc2c(cc1OC)C(CCCO)NCC2 (configuration not stated),97.6%
6,O=C(c1cc(-c2ccc(Cl)c(Cl)c2)nc2ccccc12)N1CCc2ccccc2C1,104%
7,CNc1nc(C(N)=O)c(NC(=O)c2ccc3c(c2)OCO3)s1,95.1%
8,COc1ccc(C=O)cc1CSc1nc2c(=O)[nH]cnc2n1C,95.8%
9,CCC(Sc1nc2c(=O)[nH]cnc2n1C)C(=O)Nc1ccc(OC)c(Cl)c1 (configuration not stated),101%
10,CCN(CC)C(=O)c1cc(=O)n(CC(=O)Nc2ccccc2Cl)c2ccccc12,103%
11,COc1cc(C(=O)NC(Cc2ccccc2)C(=O)O)cc(OC)c1OC (configuration not stated),101%
12,O=C1C2CC=CCC2C(=O)N1Cc1cc(=O)[nH]c2ccccc12 (configuration not stated),102%
13,Cc1ccccc1C(=O)OCC1CCCN2CCCCC12.O.O.O.O.O.O.O=[N+]([O-])O.O=[N+]([O-])O.[Co] (configuration not stated),104%
14,CCOc1ccc2[nH]c(=O)c(C(c3nnnn3C(C)(C)C)N3CCN(Cc4ccccc4)CC3)cc2c1 (configuration not stated),95%
15,CCOc1cc2c(cc1OCC)C(c1cccc(F)c1F)NCC2 (configuration not stated),86.1%
16,CCOC(=O)CC(=O)c1cc(OC)c(OC)c(OC)c1,94.4%
17,CCCCCOC(=O)C1=C(C)N(C)C(=O)NC1c1cc(Cl)c(O)c(OC)c1 (configuration not stated),94.5%
18,O=c1cc(-c2ccccc2Cl)oc2c(Br)cc(Cl)cc12,112%
19,Cc1nc2c(nc(SCc3nc(-c4ccc(Cl)cc4)oc3C)n2C)c(=O)[nH]1,102%
20,CCOc1c(C=O)cccc1OC,104%
21,COc1ccc(-c2nc(CSc3nc4c(=O)[nH]cnc4n3C)c(C)o2)cc1,98.5%
22,COc1ccc(C(=O)Nc2ccc(CC#N)cc2)cc1OC,102%
23,COC(=O)c1ccc(/C=N/NC(=O)c2ccc(CN3CCc4ccccc4C3)cc2)cc1,95.6%
24,COc1cccc(NC(=O)c2ccc(CN3CCc4ccccc4C3)cc2)c1,93.7%
25,C=CC(C)(O)CCC=C(C)CCC=C(C)C (mixture of isomers),86.4%

# Taken from above:
# Value for O=c1cc(-c2ccccc2Cl)oc2c(Br)cc(Cl)cc12 under cell viability: 112%
# Value for O=C1C2CC=CCC2C(=O)N1Cc1cc(=O)[nH]c2ccccc12 (configuration not stated) under cell viability: 102%
# Value for Cc1nc2c(nc(SCc3nc(-c4ccc(Cl)cc4)oc3C)n2C)c(=O)[nH]1 under cell viability: 102%
# Value for COc1cc(C(=O)NC(Cc2ccccc2)C(=O)O)cc(OC)c1OC (configuration not stated) under cell viability: 101%
# Value for CCOC(=O)N1CCCc2cc(NCCC(=O)c3ccc(OC)c(OC)c3)ccc21 under cell viability: 95.3%
# Value for Cc1ccc2occ(-c3nc(-c4ccccc4)c(-c4ccccc4)[nH]3)c(=O)c2c1 under cell viability: 91.7%

# (further entries)

row,Structure (SMILES),cell viability
1,CC1(C)CC(=O)C2=C(C1)NC1=C(C(=O)CC(C)(C)C1)C2c1ccccc1OCc1ccccc1Cl,106%
2,COc1ccc(-c2nc(CSc3nc4c(=O)[nH]c(C)nc4n3C)c(C)o2)cc1OC,109%
3,COc1cccc2oc(-c3ccccc3)c(O)c(=O)c12,90.3%
4,Nc1[nH]c(=O)ncc1CO,100%
5,Cc1c(-c2ccc(Br)cc2)c(=O)oc2ccccc12,92%
6,Cc1ccc(C)c(C2C(C#N)=C(N)Oc3c2oc(CO)cc3=O)c1 (configuration not stated),108%
7,COc1ccc(C(=O)NCN2CCN(c3ccccc3)CC2)cc1OC,102%
8,O=C(c1nn2c(C(F)(F)F)cc(-c3ccccc3)nc2c1Br)N1CCc2ccccc2C1,101%
9,COc1ccc(/C=C2\Oc3ccc(Br)cc3C2=O)cc1,97.7%
10,COc1ccc(NC(=O)CSc2nc3c(=O)[nH]cnc3n2C)c(OC)c1,85.2%
11,COc1ccc(Br)cc1-c1nc(CSc2nc3c(=O)[nH]cnc3n2C)c(C)o1,117%
12,Cc1ccc2[nH]c3c(c2c1)CCCC3=O,84.8%
13,Cc1cccc(C)c1NC(=O)Cn1c(=O)cc(C(=O)N2CCc3ccccc3C2)c2ccccc21,97.3%
14,CCOc1ccc2oc(=O)cc(CN3CCN(C(=O)c4c(F)cccc4F)CC3)c2c1,94.6%
15,COC(=O)c1cn(C(=O)c2ccc3c(c2)OCO3)c2ccccc12,100%
16,Cc1[nH]c2ccc(OC(F)(F)F)cc2c1CCNC(=O)c1cc2ccccc2oc1=O,96.8%
17,CCOC(=O)C1=C(c2ccccc2)NC(=S)NC1c1ccc(O)c(OC)c1 (configuration not stated),97%
18,O=C(Oc1ccc2c3c(c(=O)oc2c1)CCC3)c1ccccc1,105%
19,COc1cc2ccccc2cc1C(=O)Nc1ccc(CN2CCOCC2)cc1,90.7%
20,COc1cc(C(=O)Nc2ccc(C(=O)NCc3ccccc3)cc2)cc(OC)c1OC,87%
21,CC1(C)CC(=O)C2=C(C1)Nc1ccccc1NC2c1ccc(OCc2ccccc2F)c(Cl)c1 (configuration not stated),104%
22,Cc1cc(C)c2c(O)c(Cc3ccccc3)c(=O)[nH]c2c1,110%
